Measurements reported in paper PMC10394084.
No constants are given. Whether binding was seen depends on the method and setting. Binding seen in cells or lysates may run through a third protein. Some entries that bind do so weakly or less than the wild type.

Sequences of proteins named here, by UniProt entry; tags and fusion partners are left off.
UniProt Q5SXA9: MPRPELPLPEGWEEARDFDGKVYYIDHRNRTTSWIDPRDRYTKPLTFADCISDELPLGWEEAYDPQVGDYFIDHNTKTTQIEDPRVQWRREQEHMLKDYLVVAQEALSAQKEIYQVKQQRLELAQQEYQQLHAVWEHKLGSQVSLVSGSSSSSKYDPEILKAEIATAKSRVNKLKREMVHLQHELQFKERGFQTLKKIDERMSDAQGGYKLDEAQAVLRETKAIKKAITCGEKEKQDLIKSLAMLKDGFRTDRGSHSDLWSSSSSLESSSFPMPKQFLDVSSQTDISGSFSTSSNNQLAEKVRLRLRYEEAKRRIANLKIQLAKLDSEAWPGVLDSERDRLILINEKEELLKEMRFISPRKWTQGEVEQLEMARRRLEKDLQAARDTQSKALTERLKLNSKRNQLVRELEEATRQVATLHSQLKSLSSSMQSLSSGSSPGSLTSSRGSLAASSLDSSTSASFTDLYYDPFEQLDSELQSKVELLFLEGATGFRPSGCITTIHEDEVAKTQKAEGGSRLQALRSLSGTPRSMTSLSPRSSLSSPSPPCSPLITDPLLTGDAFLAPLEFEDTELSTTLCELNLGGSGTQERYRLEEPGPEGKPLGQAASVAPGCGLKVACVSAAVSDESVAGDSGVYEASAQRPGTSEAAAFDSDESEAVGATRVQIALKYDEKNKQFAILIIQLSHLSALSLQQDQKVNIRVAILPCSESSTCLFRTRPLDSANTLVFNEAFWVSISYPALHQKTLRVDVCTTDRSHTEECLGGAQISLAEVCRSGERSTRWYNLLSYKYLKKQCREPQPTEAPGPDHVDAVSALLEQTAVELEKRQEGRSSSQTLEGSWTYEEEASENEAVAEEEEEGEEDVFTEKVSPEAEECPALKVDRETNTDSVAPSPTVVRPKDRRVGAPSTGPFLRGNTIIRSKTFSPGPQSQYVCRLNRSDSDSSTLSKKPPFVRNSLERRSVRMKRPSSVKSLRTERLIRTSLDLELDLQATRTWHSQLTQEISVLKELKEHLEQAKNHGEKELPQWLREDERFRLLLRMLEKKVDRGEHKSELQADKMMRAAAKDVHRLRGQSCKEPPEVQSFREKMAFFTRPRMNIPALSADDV

Experiments:
[1] = target: WWC1 (co-immunoprecipitation with USP9X, Fig. S3A) (UniProt Q8IX03); assay: co-IP; co-immunoprecipitation of USP9X and WWC1 (Fig. S3A); set-up not shown
[2] = target: endogenous WWC1 of mouse cortex (mouse (endogenous in cortex)) (UniProt Q5SXA9); assay: co-IP; mouse cortex homogenates (wild-type, P21) in RIPA buffer; primary antibody 1 h at 4 °C, protein A/G agarose 2 h; IgG as control; immunoblotting

Molecule	binding [1]	binding [2]
USP9X (from UniProt Q93008 1-2554) (enzyme)	binds	
endogenous AMOT (AMOTp130) of mouse cortex (protein, UniProt Q8VHG2 1-1126) MRSSDDQPSGGTTVLQRLLQEQLRYGNPSENRSLLAIHQQATGNSSPFSTGSGNQGPQNDVLSSQDHHQQQLVAHPARQEPQGQEIQSENGVMEKQLSPRMQNNEELPTYEEAKVQSQYFRGQQHASVGAAFYVTGVTNQKMRTEGRPSVQRLTPGKMHQDEGLRDLKQGHVRSLSERLMQMSLATSGVKAHPPVTSAPLSPPQPNDLYKNATSSSEFYKAQGPPPSQHSLKGMEHRGPPPEYPFKGVPSQSVVCKSQEPGHFYSEHRLNQPGRTEGQLMRYQHPPEYGAARATQDISSLSLSARNSQPHSPTSSLTAGASSLPLLQSPPSTRLPPGQHLVSNQGDHSAHLSRHQQHLLSSQSHQGDHYRHAQASLTSAQQQPGEAYSAMPRAQQSASYQPMPADPFAMVSRAQQMVEILSDENRNLRQELDGCYEKVARLQKVETEIQRVSEAYENLVKSSSKREALEKAMRNKLEGEIRRMHDFNRDLRDRLETANKQLAEKEYEGSEDTRKTISQLFAKHKENQREKEKLEAELATARSTNEDQRRHIEIRDQALSNAQAKVVKLEEELKKKQVYVDKVEKMQQALVQLQAACEKREQLEHRLRTRLERELESLRIQQRQGNSQPTNASEYNAAALMELLREKEERILALEADMTKWEQKYLEENVMRHFALDAAATVAAQRDTTVISHSPNTSYDTALEARIQKEEEEILMANKRCLDMEGRIKTLHAQIIEKDAMIKVLQQRSRKEPSKTEQLSSMRPAKSLMSISNAGSGLLAHSSTLTGAPIMEEKRDDKSWKGSLGVLLGGDYRVEPVPSTPSPVPPSTPLLSAHSKTGSRDCSTQTERGPESTKTAAVTPISAPMAGPVAAAAPAAAINATAATNTATAATNTTIMVAAAPVAVAAVAAPAAAAATPSPANAAALAAAAAPATSVSAATSVSAANSISPAAPVAPAAVVPPAAPVSPAAAVQIPAAASLTPATVSPTAATATAAVAAATTAAITAAAAAATTAIQVAPATSAPVPSPASIPAPATAQASAPTPTQASTPAPTEPPSPVPTPTPALVQTEGPANPGASSGPRRLSTPNLMCNPDKPDAPAFHSSTLERKTPIQILGQEPDAEMVEYLI		binds
